Source: the supplement of paper PMC12067093, “Discovery and optimisation of a covalent ligand for TRIM25 and its application to targeted protein ubiquitination” (Chemical Science, 2025)
The other results are listed elsewhere or left out.

The chains behind the UniProt entries cited, without tags or fusion partners. Where a name states a change or a piece, a line headed by the entry shows the natural chain unless it says otherwise.
UniProt Q01433: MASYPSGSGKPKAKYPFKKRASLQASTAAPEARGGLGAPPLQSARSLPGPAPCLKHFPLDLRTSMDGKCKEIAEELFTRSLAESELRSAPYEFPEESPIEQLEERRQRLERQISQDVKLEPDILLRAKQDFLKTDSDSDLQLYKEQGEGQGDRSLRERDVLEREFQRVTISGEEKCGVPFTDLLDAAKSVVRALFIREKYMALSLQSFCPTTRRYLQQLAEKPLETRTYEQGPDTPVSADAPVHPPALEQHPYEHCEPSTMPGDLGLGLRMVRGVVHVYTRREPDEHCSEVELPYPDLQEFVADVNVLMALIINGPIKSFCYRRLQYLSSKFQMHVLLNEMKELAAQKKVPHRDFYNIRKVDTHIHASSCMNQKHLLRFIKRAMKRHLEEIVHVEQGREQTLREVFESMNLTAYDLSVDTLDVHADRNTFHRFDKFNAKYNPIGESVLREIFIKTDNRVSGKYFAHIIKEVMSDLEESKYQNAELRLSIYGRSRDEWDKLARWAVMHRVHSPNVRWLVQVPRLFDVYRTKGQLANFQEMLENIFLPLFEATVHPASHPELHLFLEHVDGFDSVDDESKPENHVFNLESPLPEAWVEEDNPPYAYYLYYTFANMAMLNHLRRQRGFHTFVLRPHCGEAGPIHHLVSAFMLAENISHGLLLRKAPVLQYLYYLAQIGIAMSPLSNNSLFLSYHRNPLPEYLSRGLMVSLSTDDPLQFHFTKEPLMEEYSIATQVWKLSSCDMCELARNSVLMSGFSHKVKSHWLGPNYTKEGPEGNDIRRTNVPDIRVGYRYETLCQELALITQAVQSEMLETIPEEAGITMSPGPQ
UniProt P04075: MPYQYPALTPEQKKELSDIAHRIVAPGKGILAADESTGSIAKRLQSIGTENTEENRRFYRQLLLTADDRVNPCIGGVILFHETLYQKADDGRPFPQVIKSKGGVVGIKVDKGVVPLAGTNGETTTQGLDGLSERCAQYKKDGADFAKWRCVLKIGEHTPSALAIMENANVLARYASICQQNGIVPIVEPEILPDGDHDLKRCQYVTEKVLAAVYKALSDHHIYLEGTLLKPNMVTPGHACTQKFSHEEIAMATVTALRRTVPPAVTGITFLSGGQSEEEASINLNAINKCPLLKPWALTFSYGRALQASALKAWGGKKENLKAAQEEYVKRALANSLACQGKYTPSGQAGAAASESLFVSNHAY
UniProt Q8WYP5: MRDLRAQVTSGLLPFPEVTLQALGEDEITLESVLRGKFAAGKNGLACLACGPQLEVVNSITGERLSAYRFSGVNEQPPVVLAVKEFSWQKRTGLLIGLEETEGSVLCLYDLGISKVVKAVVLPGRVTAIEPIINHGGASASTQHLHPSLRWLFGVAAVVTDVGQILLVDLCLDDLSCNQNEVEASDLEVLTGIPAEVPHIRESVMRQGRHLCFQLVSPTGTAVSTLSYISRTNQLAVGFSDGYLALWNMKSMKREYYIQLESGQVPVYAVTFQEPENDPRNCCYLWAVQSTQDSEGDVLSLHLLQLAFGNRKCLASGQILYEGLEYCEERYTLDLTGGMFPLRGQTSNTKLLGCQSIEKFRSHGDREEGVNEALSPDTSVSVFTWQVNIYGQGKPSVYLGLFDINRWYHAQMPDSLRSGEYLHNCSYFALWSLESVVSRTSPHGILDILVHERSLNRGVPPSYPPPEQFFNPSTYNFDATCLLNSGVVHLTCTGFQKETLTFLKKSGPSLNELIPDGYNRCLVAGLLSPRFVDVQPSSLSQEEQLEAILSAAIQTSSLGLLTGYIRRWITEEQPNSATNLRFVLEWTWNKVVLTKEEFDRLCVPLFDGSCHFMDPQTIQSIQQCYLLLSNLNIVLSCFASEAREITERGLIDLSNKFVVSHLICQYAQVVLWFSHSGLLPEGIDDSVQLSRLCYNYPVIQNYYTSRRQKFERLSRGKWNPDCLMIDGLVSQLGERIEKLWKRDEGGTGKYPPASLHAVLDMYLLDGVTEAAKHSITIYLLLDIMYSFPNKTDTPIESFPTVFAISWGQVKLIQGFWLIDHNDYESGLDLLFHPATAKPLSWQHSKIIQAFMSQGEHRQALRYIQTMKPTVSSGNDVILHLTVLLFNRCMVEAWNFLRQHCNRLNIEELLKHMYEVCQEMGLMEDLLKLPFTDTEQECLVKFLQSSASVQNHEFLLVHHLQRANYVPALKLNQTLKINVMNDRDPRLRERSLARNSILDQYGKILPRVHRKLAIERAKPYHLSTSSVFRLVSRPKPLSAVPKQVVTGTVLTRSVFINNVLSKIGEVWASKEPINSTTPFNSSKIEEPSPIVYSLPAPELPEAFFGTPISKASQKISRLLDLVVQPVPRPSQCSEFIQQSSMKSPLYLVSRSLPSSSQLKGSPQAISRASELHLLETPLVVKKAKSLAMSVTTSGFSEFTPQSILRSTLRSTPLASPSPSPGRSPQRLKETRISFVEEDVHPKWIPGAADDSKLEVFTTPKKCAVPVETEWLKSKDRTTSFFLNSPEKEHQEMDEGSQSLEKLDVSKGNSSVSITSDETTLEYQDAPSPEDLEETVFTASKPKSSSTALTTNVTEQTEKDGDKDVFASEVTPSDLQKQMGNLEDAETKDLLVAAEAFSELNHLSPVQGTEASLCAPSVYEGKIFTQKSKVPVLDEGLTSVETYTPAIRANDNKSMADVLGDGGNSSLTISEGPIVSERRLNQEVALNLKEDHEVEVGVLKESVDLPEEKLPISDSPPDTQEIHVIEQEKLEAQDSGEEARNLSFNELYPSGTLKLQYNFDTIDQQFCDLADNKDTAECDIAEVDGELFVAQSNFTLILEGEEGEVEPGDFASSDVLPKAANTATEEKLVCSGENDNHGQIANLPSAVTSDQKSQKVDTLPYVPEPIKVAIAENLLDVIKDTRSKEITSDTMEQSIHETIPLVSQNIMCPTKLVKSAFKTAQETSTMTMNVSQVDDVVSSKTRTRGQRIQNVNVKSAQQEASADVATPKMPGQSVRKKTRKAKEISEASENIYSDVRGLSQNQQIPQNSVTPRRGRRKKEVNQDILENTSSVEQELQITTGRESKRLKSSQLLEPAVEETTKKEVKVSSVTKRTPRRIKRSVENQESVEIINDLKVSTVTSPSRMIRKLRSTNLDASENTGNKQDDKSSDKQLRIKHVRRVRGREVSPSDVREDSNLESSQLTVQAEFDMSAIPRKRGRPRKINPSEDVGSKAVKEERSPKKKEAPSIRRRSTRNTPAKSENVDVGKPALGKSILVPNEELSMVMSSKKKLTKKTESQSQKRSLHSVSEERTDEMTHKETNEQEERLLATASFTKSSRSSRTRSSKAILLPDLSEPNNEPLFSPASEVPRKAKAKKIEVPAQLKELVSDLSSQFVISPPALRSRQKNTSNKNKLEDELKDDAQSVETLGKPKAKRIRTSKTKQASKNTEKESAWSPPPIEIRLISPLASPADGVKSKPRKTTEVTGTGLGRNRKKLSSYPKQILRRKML
UniProt Q96Q42: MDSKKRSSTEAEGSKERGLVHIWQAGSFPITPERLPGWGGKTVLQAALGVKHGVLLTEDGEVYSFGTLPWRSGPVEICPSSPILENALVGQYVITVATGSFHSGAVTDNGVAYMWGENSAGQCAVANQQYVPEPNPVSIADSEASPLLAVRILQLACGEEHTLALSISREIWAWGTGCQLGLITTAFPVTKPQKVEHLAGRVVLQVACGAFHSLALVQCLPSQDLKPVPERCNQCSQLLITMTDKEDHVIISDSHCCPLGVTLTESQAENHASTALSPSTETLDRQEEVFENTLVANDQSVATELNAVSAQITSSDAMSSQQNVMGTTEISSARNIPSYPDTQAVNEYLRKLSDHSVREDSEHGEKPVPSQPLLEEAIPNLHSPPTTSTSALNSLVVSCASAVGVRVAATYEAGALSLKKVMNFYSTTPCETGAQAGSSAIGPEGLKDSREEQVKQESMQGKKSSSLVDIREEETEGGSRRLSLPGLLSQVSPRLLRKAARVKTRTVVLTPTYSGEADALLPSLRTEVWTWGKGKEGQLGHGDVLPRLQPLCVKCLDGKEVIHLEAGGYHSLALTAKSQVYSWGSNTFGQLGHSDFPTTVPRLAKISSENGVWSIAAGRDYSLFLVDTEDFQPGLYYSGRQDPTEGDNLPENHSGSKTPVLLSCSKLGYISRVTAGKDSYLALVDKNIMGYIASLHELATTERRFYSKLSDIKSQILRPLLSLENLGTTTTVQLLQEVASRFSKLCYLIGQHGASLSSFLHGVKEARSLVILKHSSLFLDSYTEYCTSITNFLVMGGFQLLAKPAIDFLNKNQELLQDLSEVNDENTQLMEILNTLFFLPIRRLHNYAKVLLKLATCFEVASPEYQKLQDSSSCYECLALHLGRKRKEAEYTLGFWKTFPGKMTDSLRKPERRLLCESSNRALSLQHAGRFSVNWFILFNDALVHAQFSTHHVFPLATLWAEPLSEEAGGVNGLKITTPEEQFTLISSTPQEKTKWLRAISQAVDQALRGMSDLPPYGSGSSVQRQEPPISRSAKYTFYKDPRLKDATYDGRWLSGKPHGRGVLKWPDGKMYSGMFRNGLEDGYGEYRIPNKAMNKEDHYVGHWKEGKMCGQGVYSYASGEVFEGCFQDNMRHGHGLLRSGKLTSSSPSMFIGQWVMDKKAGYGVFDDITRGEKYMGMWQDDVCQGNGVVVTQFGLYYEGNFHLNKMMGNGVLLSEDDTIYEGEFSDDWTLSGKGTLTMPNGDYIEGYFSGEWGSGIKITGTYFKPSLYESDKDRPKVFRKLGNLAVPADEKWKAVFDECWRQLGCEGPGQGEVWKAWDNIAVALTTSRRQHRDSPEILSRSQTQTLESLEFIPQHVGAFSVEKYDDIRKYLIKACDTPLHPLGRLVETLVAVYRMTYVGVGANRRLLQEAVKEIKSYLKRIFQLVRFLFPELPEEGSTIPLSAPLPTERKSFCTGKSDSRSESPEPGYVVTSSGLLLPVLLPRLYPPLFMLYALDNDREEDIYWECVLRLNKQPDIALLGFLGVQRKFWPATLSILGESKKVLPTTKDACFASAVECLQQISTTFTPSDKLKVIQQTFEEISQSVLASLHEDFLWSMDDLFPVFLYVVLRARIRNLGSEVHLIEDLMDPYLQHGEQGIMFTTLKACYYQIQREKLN
UniProt Q9UM13, whole entry, looked up: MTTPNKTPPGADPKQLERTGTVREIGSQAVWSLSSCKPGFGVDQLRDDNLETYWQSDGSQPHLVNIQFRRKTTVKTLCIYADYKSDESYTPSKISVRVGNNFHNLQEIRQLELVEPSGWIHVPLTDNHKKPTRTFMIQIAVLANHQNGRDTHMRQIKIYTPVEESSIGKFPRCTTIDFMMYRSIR
UniProt Q92667: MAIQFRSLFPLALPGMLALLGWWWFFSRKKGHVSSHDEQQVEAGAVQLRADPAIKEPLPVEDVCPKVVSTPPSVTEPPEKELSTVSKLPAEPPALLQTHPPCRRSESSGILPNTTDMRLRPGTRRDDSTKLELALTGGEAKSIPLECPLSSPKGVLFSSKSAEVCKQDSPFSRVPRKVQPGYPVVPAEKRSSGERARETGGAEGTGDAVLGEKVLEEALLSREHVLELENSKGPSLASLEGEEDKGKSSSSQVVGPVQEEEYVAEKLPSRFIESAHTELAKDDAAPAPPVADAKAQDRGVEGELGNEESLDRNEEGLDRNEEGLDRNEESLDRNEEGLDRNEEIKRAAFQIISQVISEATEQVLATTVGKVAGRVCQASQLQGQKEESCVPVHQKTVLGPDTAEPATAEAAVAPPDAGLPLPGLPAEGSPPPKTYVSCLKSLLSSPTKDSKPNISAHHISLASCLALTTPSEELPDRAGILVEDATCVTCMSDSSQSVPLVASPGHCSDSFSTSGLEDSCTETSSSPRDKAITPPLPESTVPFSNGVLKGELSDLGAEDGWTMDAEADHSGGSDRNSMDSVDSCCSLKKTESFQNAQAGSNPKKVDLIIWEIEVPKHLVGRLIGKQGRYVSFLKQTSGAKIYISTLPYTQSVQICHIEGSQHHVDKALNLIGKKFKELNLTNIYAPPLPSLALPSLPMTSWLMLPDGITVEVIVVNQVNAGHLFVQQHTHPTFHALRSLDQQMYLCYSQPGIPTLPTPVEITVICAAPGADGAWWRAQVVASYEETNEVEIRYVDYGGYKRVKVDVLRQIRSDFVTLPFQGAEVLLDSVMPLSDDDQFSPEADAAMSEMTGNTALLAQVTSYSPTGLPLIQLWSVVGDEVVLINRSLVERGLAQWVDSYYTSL
UniProt O00170: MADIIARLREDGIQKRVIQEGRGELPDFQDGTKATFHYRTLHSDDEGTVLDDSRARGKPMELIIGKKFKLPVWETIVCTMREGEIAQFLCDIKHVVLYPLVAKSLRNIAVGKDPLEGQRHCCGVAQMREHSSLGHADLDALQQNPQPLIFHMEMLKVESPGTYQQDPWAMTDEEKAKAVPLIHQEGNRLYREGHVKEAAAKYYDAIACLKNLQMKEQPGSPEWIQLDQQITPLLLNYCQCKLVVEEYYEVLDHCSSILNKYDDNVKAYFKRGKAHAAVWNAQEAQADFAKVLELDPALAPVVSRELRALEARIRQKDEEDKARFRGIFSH

Compound: Cc1cc(ccc1-c1ccccc1)C(=O)N1CCCN(CC1)C(=O)CCl [compound 10]
Experiment: probe-labelled cysteine peptide fold change vs DMSO (competition) (log2 fold change); higher = less target engagement (more negative = stronger competition)
Settings: THP-1, incubation time: 4 h
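Note: competitive profiling in live THP-1 cells: cysteine peptides tagged with an iodoacetamide desthiobiotin (IA-DTB) probe, intensity after compound treatment relative to DMSO-treated cells.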

Target	probe-labelled cysteine peptide fold change (10 µM)	probe-labelled cysteine peptide fold change (50 µM)
AMPD2_Q01433_230_CGVPFTDLLDAAK (UniProt Q01433)	-0.00293	-0.258
ALDOA_P04075_73_VNPCIGGVILFHETLYQK (UniProt P04075)	0.222	0.207
ANKFY1_Q9P2R3_742_AIDENNEPTACFLIR (UniProt Q9P2R3)	-0.0754	-0.213
AKAP9_Q99996_2125_CSELLLSK (UniProt Q99996)	0.132	0.0128
AKR7A2_O43488_156_RLQCPQVDLFYLHAPDHGTPVEETLHACQR (UniProt O43488)	-0.0385	-0.278
ALDH1L2_Q3SY69_472_TYDTINPTDGSTICK (UniProt Q3SY69)	0.23	0.263
ALDOC_P09972_240_ALSDHHVYLEGTLLKPNMVTPGHACPIK (UniProt P09972)	-0.228	-0.369
ANAPC5_Q9UJX4_203_EEEVSCSGPLSQK (UniProt Q9UJX4)	-0.511	-0.804
ALAS1_P13196_263_VCGAVMDTLK (UniProt P13196)	0.303	-0.0294
ALDOA_P04075_339_ALANSLACQGK (UniProt P04075)	-0.0738	-0.0749
AHCTF1_Q8WYP5_354_LLGCQSIEK (UniProt Q8WYP5)	-0.194	-0.167
ALS2_Q96Q42_916_LLCESSNR (UniProt Q96Q42)	-0.0532	-0.0888
ALDH2_P05091_66_KTFPTVNPSTGEVICQVAEGDKEDVDK (UniProt P05091)	-0.221	-0.465
AHCY_P23526_421_QAQYLGMSCDGPFKPDHYR (UniProt P23526)	-0.0527	-0.129
ANAPC10_Q9UM13_173_CTTIDFMMYR (UniProt Q9UM13)	0.0864	0.0107
AMACR_Q9UHK6_293_AEWCQIFDGTDACVTPVLTFEEVVHHDHNK (UniProt Q9UHK6)	0.166	0.128
AHCTF1_Q8WYP5_722_WNPDCLMIDGLVSQLGER (UniProt Q8WYP5)	0.145	0.111
ALDH3A2_P51648_226_DCDLDIVCR (UniProt P51648)	-0.0334	-0.00592
AMPD2_Q01433_263_YMALSLQSFCPTTR (UniProt Q01433)	-0.0503	0.0846
AGPAT2_O15120_92_PCVIVSNHQSILDMMGLMEVLPER (UniProt O15120)	0.571	0.436
AMACR_Q9UHK6_284+293_AEWCQIFDGTDACVTPVLTFEEVVHHDHNK (UniProt Q9UHK6)	0.00265	-0.16

Target	probe-labelled cysteine peptide fold change (10 µM)	probe-labelled cysteine peptide fold change (50 µM)
AGPS_O00116_226_IVNLACK (UniProt O00116)	0.238	-0.103
AKAP1_Q92667_64_EPLPVEDVCPK (UniProt Q92667)	-0.161	0.347
ALCAM_Q13740_435_TIICHVEGFPK (UniProt Q13740)	-0.0565	0.0183
ANAPC1_Q9H1A4_1074_LLQLCQR (UniProt Q9H1A4)	-0.0436	0.000425
AKAP8_O43823_484_KIEAAHCLACDMLIPAQPQLLQR (UniProt O43823)	0.197	-0.111
AIP_O00170_90_EGEIAQFLCDIK (UniProt O00170)	-0.312	-0.0858
ANAPC1_Q9H1A4_437_VFITSDLCGQK (UniProt Q9H1A4)	-0.00469	-0.0717
AGO2_Q9UKV8_787_FSSDELQILTYQLCHTYVR (UniProt Q9UKV8)	0.36	0.31
ANAPC2_Q9UJX6_421_VLDPSMVILEVACEPIRR (UniProt Q9UJX6)	-0.115	0.0681
ALDH1L1_O75891_537_YFAGWCDK (UniProt O75891)	-0.0268	-0.223
ANAPC7_Q9UJX3_451_TLGANAQTLTLLATVCLEDPVTQEK (UniProt Q9UJX3)	0.139	0.314
AKAP1_Q92667_389_EESCVPVHQK (UniProt Q92667)	-0.155	0.156
ALDH9A1_P49189_355_VLCGGDIYVPEDPK (UniProt P49189)	-0.105	0.0431
AK2_P54819_92_NLETPLCK (UniProt P54819)	-0.166	-0.0542
ALDOA_P04075_202_RCQYVTEK (UniProt P04075)	0.204	0.193
AKAP9_Q99996_2877_AVIQCLR (UniProt Q99996)	-0.293	-0.497
ALG1_Q9BT22_317_FEQLTLDGHNLPSLVCVITGK (UniProt Q9BT22)	0.246	0.277
ALDH1B1_P30837_179_HEPVGVCGQIIPWNFPLVMQGWK (UniProt P30837)	-0.0239	-0.0672
AHCTF1_Q8WYP5_1261_CAVPVETEWLK (UniProt Q8WYP5)	-0.538	-0.684
AK2_P54819_42_LAENFCVCHLATGDMLR (UniProt P54819)	0.0799	0.141
AIP_O00170_121+122_HCCGVAQMR (UniProt O00170)	-0.298	-1.16
